Some of the results follow.
Assays:
Test in all cases: log2 fold change, soluble protein after heating vs DMSO (PISA); higher = thermal stabilisation; K562 lysate, 10 uM; active = over 0.2 and 3.5 SD of the protein, either way, in both replicates (recomputed)
[1] = compound: C1CCN(C1)C(=O)NC2=CC=CC(=C2)NC3=NC=C(C(=N3)NCCC4=CN=CN4)Br
How it was run: (§1)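 K562 pellets were dounce-homogenised in PBS pH 7.4 containing 1 mM MgCl2, and the crude extract, at 1 mg/mL protein, was exposed to 10 μM compound for 30 min. Aliquots were heated for 3 min across 48°C-58°C, pooled, brought to 0.5% NP-40 at 4°C and spun at 21,000xg for 90 min, with the supernatant taken as soluble protein. TMTpro 16plex LC-MS/MS with equalised channel sums quantified that protein. Values are log-two fold changes in thermal stability relative to solvent controls, taken from duplicates.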

Chains of the proteins cited; added tags and fusions are not shown. Lines headed by an entry give the natural chain unless they say otherwise; changes in a name come on top.
UniProt Q9UEE5: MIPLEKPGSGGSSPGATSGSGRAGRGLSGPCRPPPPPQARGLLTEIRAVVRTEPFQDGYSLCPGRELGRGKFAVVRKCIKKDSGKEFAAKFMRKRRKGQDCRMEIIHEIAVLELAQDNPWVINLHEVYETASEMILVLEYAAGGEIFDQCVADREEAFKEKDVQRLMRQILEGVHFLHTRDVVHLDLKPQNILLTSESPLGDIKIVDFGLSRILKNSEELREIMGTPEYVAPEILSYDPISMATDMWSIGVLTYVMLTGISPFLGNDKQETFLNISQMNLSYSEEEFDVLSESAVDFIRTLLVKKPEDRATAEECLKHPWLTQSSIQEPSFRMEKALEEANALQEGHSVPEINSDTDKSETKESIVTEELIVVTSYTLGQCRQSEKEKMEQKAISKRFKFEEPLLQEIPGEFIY
UniProt Q86TL2: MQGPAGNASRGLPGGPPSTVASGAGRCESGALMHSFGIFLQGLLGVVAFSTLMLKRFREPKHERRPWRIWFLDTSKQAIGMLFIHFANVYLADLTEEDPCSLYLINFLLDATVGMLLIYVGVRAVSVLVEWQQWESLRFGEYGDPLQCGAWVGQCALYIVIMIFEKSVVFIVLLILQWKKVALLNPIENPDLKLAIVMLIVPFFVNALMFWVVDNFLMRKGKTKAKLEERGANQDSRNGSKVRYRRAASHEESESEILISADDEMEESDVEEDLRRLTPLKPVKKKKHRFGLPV
UniProt Q9HAC7: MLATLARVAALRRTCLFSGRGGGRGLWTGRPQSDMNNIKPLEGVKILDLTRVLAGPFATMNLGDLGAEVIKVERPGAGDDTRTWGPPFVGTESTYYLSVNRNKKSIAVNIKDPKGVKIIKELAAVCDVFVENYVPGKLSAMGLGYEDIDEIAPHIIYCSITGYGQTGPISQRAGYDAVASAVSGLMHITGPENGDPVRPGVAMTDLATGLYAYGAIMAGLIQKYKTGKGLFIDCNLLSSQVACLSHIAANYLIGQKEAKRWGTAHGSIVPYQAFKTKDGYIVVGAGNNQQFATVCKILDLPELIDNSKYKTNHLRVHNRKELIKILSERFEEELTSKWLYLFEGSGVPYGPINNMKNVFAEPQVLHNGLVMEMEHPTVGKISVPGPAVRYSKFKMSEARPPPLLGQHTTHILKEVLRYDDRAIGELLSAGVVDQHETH
UniProt P0DMM9: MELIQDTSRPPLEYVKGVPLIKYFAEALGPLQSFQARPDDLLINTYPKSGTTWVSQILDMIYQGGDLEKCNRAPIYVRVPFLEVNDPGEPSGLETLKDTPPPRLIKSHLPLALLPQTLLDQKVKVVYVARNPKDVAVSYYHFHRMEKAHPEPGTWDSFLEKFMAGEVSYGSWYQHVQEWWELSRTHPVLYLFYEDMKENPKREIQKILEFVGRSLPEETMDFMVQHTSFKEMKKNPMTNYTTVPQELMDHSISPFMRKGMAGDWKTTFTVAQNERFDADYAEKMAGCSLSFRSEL
UniProt Q9UBS9: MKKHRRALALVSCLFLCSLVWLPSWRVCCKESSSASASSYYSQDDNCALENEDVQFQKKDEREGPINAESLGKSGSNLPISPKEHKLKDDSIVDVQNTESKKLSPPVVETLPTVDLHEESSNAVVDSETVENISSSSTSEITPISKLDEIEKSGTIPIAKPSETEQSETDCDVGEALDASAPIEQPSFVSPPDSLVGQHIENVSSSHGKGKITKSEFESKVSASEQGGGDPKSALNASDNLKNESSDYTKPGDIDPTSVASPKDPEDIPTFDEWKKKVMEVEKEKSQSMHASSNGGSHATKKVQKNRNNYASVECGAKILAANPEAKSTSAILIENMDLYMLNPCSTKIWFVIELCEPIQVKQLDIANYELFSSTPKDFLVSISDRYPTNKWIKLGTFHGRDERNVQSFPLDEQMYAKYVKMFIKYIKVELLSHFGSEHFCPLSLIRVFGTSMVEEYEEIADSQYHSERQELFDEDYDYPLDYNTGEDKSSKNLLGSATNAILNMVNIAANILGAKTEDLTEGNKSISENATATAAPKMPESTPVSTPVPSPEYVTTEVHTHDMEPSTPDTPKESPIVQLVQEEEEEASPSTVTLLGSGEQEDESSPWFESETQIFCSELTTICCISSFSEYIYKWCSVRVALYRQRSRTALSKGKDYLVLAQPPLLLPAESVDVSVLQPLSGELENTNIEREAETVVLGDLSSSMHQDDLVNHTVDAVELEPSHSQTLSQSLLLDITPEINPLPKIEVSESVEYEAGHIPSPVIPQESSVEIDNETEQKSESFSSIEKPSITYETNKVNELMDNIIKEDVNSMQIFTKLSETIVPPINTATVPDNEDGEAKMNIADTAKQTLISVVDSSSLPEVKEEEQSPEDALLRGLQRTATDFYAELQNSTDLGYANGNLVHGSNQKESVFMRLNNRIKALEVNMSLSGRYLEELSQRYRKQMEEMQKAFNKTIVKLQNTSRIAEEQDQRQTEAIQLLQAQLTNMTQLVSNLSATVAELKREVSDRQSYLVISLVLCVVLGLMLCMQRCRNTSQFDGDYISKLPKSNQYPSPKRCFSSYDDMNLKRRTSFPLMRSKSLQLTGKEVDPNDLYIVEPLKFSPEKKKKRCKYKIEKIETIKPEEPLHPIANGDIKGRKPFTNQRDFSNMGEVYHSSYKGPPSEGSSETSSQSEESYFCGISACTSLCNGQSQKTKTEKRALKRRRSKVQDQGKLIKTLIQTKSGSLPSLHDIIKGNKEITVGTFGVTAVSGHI
UniProt O43759: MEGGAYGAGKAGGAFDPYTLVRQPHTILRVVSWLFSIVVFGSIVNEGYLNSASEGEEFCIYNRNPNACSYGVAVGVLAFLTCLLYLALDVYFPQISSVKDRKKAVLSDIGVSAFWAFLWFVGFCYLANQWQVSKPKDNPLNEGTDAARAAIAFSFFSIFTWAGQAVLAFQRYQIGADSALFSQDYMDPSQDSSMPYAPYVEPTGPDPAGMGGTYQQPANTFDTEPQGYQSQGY
UniProt Q15544, whole entry, looked up: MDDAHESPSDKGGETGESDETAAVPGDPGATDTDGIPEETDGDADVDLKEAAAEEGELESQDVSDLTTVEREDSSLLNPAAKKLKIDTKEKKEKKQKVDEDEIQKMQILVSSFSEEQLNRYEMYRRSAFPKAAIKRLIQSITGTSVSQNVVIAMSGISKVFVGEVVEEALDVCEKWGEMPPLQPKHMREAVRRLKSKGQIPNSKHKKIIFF
UniProt Q5VWG9, whole entry, looked up: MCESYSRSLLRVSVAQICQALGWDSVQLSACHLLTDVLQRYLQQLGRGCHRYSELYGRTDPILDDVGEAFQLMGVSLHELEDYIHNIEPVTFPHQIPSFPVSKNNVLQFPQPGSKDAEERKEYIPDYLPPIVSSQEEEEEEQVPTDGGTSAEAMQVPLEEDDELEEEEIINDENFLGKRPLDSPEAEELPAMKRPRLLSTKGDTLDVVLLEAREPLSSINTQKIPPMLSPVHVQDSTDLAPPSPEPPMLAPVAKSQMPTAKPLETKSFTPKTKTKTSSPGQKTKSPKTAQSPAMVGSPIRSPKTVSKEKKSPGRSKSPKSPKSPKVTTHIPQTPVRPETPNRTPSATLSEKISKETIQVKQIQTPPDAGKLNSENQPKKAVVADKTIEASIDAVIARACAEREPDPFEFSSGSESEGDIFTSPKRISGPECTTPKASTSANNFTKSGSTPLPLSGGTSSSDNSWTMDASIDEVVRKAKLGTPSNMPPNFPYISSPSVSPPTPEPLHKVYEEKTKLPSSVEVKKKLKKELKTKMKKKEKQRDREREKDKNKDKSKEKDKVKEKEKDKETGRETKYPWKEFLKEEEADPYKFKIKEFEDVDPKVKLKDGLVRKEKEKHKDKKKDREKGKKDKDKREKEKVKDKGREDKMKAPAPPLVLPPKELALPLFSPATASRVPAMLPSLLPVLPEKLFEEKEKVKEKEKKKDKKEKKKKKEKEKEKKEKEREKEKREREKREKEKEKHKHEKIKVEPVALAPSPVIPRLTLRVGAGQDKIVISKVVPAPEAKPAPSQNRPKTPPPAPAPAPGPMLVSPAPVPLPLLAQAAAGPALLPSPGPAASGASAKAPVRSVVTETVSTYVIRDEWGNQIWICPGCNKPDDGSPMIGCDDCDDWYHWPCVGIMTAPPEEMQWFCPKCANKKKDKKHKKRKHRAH
UniProt Q53T94: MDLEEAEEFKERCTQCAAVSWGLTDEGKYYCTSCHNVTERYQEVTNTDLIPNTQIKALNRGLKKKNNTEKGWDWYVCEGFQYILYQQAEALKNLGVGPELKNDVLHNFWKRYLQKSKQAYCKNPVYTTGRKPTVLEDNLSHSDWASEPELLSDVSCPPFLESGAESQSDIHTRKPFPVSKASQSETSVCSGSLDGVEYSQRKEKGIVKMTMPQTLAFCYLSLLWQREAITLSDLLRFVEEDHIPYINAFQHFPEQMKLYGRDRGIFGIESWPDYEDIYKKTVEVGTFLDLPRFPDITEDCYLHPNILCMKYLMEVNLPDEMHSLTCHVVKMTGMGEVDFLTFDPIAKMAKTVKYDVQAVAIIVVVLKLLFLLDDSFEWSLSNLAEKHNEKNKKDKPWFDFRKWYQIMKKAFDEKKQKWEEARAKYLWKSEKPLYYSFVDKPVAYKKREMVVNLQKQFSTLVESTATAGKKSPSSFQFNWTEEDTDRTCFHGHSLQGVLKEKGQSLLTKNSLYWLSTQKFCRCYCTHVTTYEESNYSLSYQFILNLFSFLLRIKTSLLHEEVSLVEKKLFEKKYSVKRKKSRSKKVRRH
UniProt Q15527: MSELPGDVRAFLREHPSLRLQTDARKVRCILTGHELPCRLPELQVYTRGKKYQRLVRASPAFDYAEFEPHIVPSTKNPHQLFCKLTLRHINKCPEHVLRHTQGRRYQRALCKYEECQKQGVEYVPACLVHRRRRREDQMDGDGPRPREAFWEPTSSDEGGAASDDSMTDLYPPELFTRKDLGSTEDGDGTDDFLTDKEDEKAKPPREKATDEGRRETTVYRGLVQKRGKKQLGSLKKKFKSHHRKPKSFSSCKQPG
UniProt O94768: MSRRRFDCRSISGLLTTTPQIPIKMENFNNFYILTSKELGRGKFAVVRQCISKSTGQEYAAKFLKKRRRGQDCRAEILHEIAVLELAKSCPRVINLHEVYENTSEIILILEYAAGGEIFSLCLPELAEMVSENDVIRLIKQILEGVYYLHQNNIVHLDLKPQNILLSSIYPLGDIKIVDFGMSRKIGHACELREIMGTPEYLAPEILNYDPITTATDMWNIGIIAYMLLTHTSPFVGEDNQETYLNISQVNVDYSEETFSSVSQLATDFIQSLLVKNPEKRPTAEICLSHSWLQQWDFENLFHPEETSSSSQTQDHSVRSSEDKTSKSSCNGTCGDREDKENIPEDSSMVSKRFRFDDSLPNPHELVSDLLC
UniProt Q6PIF2: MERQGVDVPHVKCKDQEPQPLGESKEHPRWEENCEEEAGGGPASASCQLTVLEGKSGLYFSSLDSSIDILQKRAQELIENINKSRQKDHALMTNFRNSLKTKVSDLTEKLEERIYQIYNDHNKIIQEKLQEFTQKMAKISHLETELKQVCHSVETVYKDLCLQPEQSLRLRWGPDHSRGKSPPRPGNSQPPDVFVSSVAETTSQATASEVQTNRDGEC
UniProt Q13033: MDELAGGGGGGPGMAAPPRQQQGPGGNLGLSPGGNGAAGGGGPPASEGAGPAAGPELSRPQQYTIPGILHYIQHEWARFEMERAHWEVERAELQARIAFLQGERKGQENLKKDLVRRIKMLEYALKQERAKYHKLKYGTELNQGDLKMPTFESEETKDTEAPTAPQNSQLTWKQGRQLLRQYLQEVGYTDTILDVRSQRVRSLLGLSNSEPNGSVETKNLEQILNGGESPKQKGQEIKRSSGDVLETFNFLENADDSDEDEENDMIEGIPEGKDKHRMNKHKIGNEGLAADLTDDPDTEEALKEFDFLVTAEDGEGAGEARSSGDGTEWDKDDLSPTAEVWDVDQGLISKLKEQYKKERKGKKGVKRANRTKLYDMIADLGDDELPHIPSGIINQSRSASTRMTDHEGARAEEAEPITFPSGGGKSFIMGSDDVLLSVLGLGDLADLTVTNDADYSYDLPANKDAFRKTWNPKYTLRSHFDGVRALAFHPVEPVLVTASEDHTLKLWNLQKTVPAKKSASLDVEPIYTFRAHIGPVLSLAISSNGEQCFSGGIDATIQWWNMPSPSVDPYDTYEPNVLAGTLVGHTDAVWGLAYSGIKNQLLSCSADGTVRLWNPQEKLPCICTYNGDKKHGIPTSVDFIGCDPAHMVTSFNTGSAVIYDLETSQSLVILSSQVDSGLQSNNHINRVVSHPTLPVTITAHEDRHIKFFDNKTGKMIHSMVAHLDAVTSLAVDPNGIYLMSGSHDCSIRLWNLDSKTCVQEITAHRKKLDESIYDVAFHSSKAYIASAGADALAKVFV
UniProt Q96L08: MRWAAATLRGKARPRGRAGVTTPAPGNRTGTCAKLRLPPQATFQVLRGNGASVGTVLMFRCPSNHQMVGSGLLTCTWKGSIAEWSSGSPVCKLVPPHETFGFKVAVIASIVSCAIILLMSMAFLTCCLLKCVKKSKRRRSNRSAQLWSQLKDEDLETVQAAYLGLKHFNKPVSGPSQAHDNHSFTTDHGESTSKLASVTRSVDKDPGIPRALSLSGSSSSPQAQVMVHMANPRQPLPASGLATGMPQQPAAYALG

[2] = compound: C1CN(CCC1(CC2=CC=C(C=C2)Cl)N)C3=NC=NC4=C3C=CN4
How it was run: as §1

[3] = compound: CC1=C(C2=C(C=C1)C(=O)C3=CC=CC=C3N2CCCN)C
How it was run: as §1

[4] = compound: CC1=C(C(CC(=O)N1)C2=CC=C(C=C2)C(F)(F)F)C(=O)NC3=C(C=C4C(=C3)C=NN4)F
How it was run: as §1

erlotinib = compound: C#Cc1cccc(Nc2ncnc3cc(OCCOC)c(OCCOC)cc23)c1 [erlotinib]
How it was run: as §1

[5] = compound: C1=CC(=CC=C1C2=NC3=C(N2)C=C(C=C3)C(=O)N)OC4=CC=C(C=C4)Cl
How it was run: as §1

[6] = compound: C1=CC=C(C=C1)C2=NC(=C(N2)C3=CC=NC=C3)C4=CC(=C(C=C4)Cl)O
How it was run: as §1

IRAK-1-4 Inhibitor I = compound: C1COCCN1CCN2C3=CC=CC=C3N=C2NC(=O)C4=CC(=CC=C4)[N+](=O)[O-] [IRAK-1-4 Inhibitor I]
How it was run: as §1

ralimetinib = compound: CC(C)(C)Cn1c(N)nc2ccc(-c3[nH]c(C(C)(C)C)nc3-c3ccc(F)cc3)nc21 [ralimetinib]
How it was run: as §1

[7] = compound: CC(C)(O)CC(=O)NCCn1ccc2ncnc(Nc3ccc(Oc4cccc(C(F)(F)F)c4)c(Cl)c3)c21
How it was run: as §1

[8] = compound: CC(C)C1=C2N=C(C=C(N2N=C1)NCC3=CC=CC=C3)NCCCCCCN
How it was run: as §1

[9] = compound: CC1=C(C=C(C=C1)NC(=O)C2=CC(=CC=C2)N(C)C)NC(=O)C3=CC=C(C=C3)O
How it was run: as §1

[10] = compound: CC1=C(C=C(C=C1)NC(=O)C2=CC(=CC=C2)C(C)(C)C#N)NC3=CC4=C(C=C3)N=CN(C4=O)C
How it was run: as §1

[11] = compound: C/C(=N\NC(=O)C1=CC(=CC=C1)S(=O)(=O)N2CCOCC2)/C3=C(C=CC(=C3)Cl)O
How it was run: as §1

[12] = compound: C1=CC2=C(C=CC(=C2)/C=C\3/C(=O)NC(=NCC4=CC=CS4)S3)N=C1
How it was run: as §1

[13] = compound: C1=CC=C2C(=C1)C3=NNC4=CC=CC(=C43)C2=O
How it was run: as §1

[14] = compound: CC(=O)c1cnc2ccc(-c3cc(Cl)c(O)c(Cl)c3)nc2c1N[C@H]1CC[C@H](CN(C)C)CC1
How it was run: as §1

[15] = compound: CC1=CC=C(C=C1)SC2=C3C=C(SC3=CN=C2)C(=O)N
How it was run: as §1

[16] = compound: C1=CC2=NC=CN=C2C=C1/C=C/3\C(=O)NC(=O)S3
How it was run: as §1

ibrutinib = compound: C=CC(=O)N1CCC[C@@H](n2nc(-c3ccc(Oc4ccccc4)cc3)c3c(N)ncnc32)C1 [ibrutinib]
How it was run: as §1

Measured: log2 fold change

STRN3 (UniProt H0YJT2)
inactive: [1] -0.173 | [2] 0.326 | [3] -0.163

STK17A (UniProt Q9UEE5)
inactive: [4] 0.213

SWSAP1 (UniProt Q6NVH7)
inactive: erlotinib 0.014 | [5] -0.145 | [6] 0.001 | IRAK-1-4 Inhibitor I -0.038 | ralimetinib -0.001 | [7] 0.013 | [8] -0.112 | [4] -0.147 | [3] -0.166 | [9] 0.096

STIMATE (UniProt Q86TL2)
inactive: [6] 0.023 | IRAK-1-4 Inhibitor I 0.13 | ralimetinib 0.047 | [7] 0.075 | [9] -0.045

STK26 isoform 3 (UniProt Q9P289)
inactive: [1] 0.272 | [2] -0.045 | [3] -0.157 | [10] -0.146

TACC3 (UniProt C9JWI7)
inactive: [11] -0.228 | [12] -0.025 | [13] -0.213

STRADB (UniProt Q9C0K7)
inactive: erlotinib -0.4 | [5] 0.497 | [8] 0.102

SUGCT isoform 3 (UniProt Q9HAC7)
inactive: [1] -0.109 | [2] -0.072 | [3] 0.096

SYNGR2 (UniProt K7EJ35)
inactive: [4] -0.13

SUPT3H (UniProt O75486)
inactive: erlotinib -0.063 | [5] 0.035 | [6] 0.003 | [1] 0.024 | [2] -0.068 | IRAK-1-4 Inhibitor I 0.146 | [14] 0.048 | ralimetinib -0.003 | [7] -0.047 | [8] 0.066 | [10] -0.014 | [9] -0.019 | [15] -0.018

SULT1A3 isoform 3 (UniProt P0DMM9)
inactive: erlotinib -0.015 | [5] 0.031 | [16] 0.041 | [6] 0.099 | [1] 0.002 | [2] -0.094 | IRAK-1-4 Inhibitor I 0.031 | ibrutinib -0.048 | ralimetinib -0.022 | [7] -0.088 | [8] 0.053 | [4] -0.051 | [3] -0.043 | [10] -0.007 | [9] -0.035

SUCO isoform 2 (UniProt Q9UBS9)
inactive: [11] -0.154 | [12] 0.004 | [6] 0.126 | [13] -0.061 | [1] -0.078 | [2] -0.01 | IRAK-1-4 Inhibitor I 0.133 | ralimetinib -0.073 | [7] 0.151 | [10] -0.028 | [9] 0.033

SYNGR1 isoform 2 (UniProt O43759)
inactive: erlotinib -0.029 | [5] -0.046 | [16] -0.065 | [6] -0.099 | [1] 0.052 | [2] -0.089 | IRAK-1-4 Inhibitor I 0.219 | ibrutinib 0.036 | ralimetinib -0.031 | [7] -0.015 | [8] -0.106 | [10] 0.086 | [9] -0.201

SYNM (UniProt O15061)
inactive: [16] -0.027 | [1] -0.152 | [2] 0.053 | ibrutinib -0.014

TAF11 (UniProt Q15544)
inactive: [11] 0.174 | [12] -0.144 | [6] -0.04 | [13] 0.124 | [1] -0.242 | [2] 0.071 | IRAK-1-4 Inhibitor I 0.051 | [14] -0.013 | ralimetinib 0.027 | [7] 0.008 | [4] 0.015 | [3] 0.115 | [10] 0.052 | [9] 0.072 | [15] -0.114

TAF3 (UniProt Q5VWG9)
inactive: [6] 0.122 | IRAK-1-4 Inhibitor I -0.327 | [14] -0.1 | ralimetinib 0.1 | [7] 0.132 | [4] 0.149 | [9] 0.158 | [15] -0.323

STIM2 isoform 2 (UniProt Q9P246)
inactive: erlotinib -0.176 | [5] 0.166 | [6] 0.015 | [1] -0.061 | [2] 0.046 | IRAK-1-4 Inhibitor I -0.059 | [14] 0.043 | ralimetinib -0.031 | [7] -0.18 | [8] -0.14 | [4] 0.237 | [3] -0.041 | [10] -0.042 | [9] 0.076 | [15] 0.093

TAF1A (UniProt Q15573)
inactive: [11] -0.097 | [12] -0.002 | [13] 0.163 | [4] 0.025

STK35 (UniProt Q8TDR2)
inactive: [16] -0.251 | [1] -0.034 | [2] 0.074 | ibrutinib -0.136 | [14] -0.065 | [3] -0.268 | [15] -0.002

TAF1B (UniProt Q53T94)
inactive: [11] -0.283 | [12] -0.123 | [16] -0.001 | [6] 0.024 | [13] 0.013 | [1] 0.345 | [2] 0.123 | IRAK-1-4 Inhibitor I -0.061 | ibrutinib -0.156 | [14] 0.095 | ralimetinib 0.043 | [7] -0.112 | [4] 0.419 | [3] -0.101 | [10] 0.032 | [9] 0.006 | [15] 0.138

SUSD1 isoform 2 (UniProt Q6UWL2)
inactive: erlotinib 0.177 | [5] -0.21 | [6] -0.017 | [1] -0.009 | [2] 0 | IRAK-1-4 Inhibitor I 0 | ralimetinib 0.122 | [7] -0.024 | [8] -0.101 | [3] 0.071 | [10] -0.027 | [9] 0.368

STS (UniProt P08842)
inactive: [11] -0.152 | [12] 0.041 | [16] 0.35 | [6] 0.059 | [13] 0.057 | IRAK-1-4 Inhibitor I -0.171 | ibrutinib 0.036 | ralimetinib -0.123 | [7] -0.1 | [4] 0.055 | [10] 0.023 | [9] 0.281

SURF2 (UniProt Q15527)
inactive: [11] 0.087 | [12] -0.019 | [16] 0.02 | [6] -0.004 | [13] 0.022 | [1] 0.051 | [2] 0.074 | IRAK-1-4 Inhibitor I 0.035 | ibrutinib 0.001 | [14] -0.019 | ralimetinib -0.147 | [7] -0.038 | [4] 0.103 | [3] 0.018 | [10] 0.026 | [9] 0.031 | [15] -0.02

STK17B (UniProt O94768)
inactive: erlotinib -0.041 | [5] -0.341 | [6] -0.022 | IRAK-1-4 Inhibitor I -0.065 | ralimetinib 0.104 | [7] -0.004 | [8] 0.162 | [4] 0.054 | [3] -0.102 | [10] 0.147 | [9] 0.07

STXBP6 (UniProt Q8NFX7)
inactive: erlotinib -0.151 | [5] 0.021 | [16] 0.076 | [6] 0.122 | IRAK-1-4 Inhibitor I 0.068 | ibrutinib -0.054 | ralimetinib 0.053 | [7] 0.256 | [8] -0.097 | [4] 0.013 | [10] -0.051 | [9] -0.019

STON1 isoform 2 (UniProt Q9Y6Q2)
inactive: erlotinib -0.084 | [5] -0.108 | [6] -0.046 | IRAK-1-4 Inhibitor I -0.063 | [14] 0.042 | ralimetinib 0.054 | [7] -0.023 | [8] -0.005 | [4] 0.128 | [9] -0.14 | [15] -0.013

Retrieved one by one from the list above, two records:
STS (UniProt P08842)
inactive: [11] -0.152 | [12] 0.041 | [16] 0.35 | [6] 0.059 | [13] 0.057 | IRAK-1-4 Inhibitor I -0.171 | ibrutinib 0.036 | ralimetinib -0.123 | [7] -0.1 | [4] 0.055 | [10] 0.023 | [9] 0.281

STK17B (UniProt O94768)
inactive: erlotinib -0.041 | [5] -0.341 | [6] -0.022 | IRAK-1-4 Inhibitor I -0.065 | ralimetinib 0.104 | [7] -0.004 | [8] 0.162 | [4] 0.054 | [3] -0.102 | [10] 0.147 | [9] 0.07

(continued)

SYCE2 (UniProt Q6PIF2)
inactive: [10] 0.044

SUPT5H isoform 2 (UniProt O00267)
inactive: [11] -0.278 | [12] -0.007 | [16] 0.101 | [13] -0.274 | ibrutinib -0.119 | [14] 0 | [4] 0.032 | [3] 0.102 | [10] 0.059 | [15] -0.024

STRN3 isoform 2 (UniProt Q13033)
inactive: [16] 0.015 | ibrutinib -0.007 | [3] 0.028

SUSD3 (UniProt Q96L08)
inactive: erlotinib -0.057 | [5] -0.231 | [6] 0.101 | IRAK-1-4 Inhibitor I -0.038 | [14] -0.328 | ralimetinib 0.086 | [7] -0.046 | [8] 0.012 | [9] 0.06 | [15] 0.081

SYTL2 isoform 8 (UniProt Q9HCH5)
inactive: [16] -0.052 | ibrutinib -0.108 | [14] -0.342 | [3] -0.141 | [15] -0.121

From the supplement of paper PMC10849652
